Results reported in paper PMC10747430 (Pharmaceutics, 2023).

Experiment: peptide made by a vendor

With “cyclo(Trp-Ser-Trp-Leu-Leu-Lys-Cys-Tyr-Ala-Asn-Pro-His-Leu-Pro)” the “purity (crude or final not stated)” value was 97%.
